The record followed here is the supplement of paper PMC11732987, “Enantioselective OTUD7B fragment discovery through chemoproteomics screening and high-throughput optimisation” (Communications Chemistry, 2025).

Chains of the proteins cited; added tags and fusions are not shown. Lines headed by an entry give the natural chain unless they say otherwise; changes in a name come on top.
UniProt Q13107: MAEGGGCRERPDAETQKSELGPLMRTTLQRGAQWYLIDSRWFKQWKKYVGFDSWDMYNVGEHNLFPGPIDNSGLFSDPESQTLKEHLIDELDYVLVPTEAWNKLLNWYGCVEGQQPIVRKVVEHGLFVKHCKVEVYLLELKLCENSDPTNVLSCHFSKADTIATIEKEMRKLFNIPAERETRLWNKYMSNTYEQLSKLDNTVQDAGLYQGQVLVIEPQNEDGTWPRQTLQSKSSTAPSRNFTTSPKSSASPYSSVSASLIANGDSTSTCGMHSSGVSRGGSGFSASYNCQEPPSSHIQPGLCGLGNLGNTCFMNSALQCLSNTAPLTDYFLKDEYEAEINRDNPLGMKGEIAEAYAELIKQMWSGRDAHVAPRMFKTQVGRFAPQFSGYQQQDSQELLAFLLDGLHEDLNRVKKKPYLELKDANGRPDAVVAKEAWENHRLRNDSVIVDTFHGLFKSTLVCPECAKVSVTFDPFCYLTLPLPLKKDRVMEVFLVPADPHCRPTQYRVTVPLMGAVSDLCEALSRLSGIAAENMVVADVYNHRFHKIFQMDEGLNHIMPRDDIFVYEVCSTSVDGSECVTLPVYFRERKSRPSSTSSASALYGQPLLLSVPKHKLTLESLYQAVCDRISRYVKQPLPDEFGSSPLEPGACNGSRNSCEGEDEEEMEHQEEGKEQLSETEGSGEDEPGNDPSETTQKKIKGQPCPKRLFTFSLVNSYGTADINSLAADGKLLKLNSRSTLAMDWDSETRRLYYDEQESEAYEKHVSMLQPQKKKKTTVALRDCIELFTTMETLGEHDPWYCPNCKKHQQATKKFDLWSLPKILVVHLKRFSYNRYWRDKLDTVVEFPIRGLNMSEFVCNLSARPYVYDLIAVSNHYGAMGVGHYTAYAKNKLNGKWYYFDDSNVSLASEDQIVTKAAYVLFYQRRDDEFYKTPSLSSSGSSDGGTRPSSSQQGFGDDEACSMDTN
UniProt P07919: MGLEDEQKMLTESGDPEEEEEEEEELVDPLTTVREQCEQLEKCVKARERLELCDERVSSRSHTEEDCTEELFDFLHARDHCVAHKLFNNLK
UniProt Q7Z7G8: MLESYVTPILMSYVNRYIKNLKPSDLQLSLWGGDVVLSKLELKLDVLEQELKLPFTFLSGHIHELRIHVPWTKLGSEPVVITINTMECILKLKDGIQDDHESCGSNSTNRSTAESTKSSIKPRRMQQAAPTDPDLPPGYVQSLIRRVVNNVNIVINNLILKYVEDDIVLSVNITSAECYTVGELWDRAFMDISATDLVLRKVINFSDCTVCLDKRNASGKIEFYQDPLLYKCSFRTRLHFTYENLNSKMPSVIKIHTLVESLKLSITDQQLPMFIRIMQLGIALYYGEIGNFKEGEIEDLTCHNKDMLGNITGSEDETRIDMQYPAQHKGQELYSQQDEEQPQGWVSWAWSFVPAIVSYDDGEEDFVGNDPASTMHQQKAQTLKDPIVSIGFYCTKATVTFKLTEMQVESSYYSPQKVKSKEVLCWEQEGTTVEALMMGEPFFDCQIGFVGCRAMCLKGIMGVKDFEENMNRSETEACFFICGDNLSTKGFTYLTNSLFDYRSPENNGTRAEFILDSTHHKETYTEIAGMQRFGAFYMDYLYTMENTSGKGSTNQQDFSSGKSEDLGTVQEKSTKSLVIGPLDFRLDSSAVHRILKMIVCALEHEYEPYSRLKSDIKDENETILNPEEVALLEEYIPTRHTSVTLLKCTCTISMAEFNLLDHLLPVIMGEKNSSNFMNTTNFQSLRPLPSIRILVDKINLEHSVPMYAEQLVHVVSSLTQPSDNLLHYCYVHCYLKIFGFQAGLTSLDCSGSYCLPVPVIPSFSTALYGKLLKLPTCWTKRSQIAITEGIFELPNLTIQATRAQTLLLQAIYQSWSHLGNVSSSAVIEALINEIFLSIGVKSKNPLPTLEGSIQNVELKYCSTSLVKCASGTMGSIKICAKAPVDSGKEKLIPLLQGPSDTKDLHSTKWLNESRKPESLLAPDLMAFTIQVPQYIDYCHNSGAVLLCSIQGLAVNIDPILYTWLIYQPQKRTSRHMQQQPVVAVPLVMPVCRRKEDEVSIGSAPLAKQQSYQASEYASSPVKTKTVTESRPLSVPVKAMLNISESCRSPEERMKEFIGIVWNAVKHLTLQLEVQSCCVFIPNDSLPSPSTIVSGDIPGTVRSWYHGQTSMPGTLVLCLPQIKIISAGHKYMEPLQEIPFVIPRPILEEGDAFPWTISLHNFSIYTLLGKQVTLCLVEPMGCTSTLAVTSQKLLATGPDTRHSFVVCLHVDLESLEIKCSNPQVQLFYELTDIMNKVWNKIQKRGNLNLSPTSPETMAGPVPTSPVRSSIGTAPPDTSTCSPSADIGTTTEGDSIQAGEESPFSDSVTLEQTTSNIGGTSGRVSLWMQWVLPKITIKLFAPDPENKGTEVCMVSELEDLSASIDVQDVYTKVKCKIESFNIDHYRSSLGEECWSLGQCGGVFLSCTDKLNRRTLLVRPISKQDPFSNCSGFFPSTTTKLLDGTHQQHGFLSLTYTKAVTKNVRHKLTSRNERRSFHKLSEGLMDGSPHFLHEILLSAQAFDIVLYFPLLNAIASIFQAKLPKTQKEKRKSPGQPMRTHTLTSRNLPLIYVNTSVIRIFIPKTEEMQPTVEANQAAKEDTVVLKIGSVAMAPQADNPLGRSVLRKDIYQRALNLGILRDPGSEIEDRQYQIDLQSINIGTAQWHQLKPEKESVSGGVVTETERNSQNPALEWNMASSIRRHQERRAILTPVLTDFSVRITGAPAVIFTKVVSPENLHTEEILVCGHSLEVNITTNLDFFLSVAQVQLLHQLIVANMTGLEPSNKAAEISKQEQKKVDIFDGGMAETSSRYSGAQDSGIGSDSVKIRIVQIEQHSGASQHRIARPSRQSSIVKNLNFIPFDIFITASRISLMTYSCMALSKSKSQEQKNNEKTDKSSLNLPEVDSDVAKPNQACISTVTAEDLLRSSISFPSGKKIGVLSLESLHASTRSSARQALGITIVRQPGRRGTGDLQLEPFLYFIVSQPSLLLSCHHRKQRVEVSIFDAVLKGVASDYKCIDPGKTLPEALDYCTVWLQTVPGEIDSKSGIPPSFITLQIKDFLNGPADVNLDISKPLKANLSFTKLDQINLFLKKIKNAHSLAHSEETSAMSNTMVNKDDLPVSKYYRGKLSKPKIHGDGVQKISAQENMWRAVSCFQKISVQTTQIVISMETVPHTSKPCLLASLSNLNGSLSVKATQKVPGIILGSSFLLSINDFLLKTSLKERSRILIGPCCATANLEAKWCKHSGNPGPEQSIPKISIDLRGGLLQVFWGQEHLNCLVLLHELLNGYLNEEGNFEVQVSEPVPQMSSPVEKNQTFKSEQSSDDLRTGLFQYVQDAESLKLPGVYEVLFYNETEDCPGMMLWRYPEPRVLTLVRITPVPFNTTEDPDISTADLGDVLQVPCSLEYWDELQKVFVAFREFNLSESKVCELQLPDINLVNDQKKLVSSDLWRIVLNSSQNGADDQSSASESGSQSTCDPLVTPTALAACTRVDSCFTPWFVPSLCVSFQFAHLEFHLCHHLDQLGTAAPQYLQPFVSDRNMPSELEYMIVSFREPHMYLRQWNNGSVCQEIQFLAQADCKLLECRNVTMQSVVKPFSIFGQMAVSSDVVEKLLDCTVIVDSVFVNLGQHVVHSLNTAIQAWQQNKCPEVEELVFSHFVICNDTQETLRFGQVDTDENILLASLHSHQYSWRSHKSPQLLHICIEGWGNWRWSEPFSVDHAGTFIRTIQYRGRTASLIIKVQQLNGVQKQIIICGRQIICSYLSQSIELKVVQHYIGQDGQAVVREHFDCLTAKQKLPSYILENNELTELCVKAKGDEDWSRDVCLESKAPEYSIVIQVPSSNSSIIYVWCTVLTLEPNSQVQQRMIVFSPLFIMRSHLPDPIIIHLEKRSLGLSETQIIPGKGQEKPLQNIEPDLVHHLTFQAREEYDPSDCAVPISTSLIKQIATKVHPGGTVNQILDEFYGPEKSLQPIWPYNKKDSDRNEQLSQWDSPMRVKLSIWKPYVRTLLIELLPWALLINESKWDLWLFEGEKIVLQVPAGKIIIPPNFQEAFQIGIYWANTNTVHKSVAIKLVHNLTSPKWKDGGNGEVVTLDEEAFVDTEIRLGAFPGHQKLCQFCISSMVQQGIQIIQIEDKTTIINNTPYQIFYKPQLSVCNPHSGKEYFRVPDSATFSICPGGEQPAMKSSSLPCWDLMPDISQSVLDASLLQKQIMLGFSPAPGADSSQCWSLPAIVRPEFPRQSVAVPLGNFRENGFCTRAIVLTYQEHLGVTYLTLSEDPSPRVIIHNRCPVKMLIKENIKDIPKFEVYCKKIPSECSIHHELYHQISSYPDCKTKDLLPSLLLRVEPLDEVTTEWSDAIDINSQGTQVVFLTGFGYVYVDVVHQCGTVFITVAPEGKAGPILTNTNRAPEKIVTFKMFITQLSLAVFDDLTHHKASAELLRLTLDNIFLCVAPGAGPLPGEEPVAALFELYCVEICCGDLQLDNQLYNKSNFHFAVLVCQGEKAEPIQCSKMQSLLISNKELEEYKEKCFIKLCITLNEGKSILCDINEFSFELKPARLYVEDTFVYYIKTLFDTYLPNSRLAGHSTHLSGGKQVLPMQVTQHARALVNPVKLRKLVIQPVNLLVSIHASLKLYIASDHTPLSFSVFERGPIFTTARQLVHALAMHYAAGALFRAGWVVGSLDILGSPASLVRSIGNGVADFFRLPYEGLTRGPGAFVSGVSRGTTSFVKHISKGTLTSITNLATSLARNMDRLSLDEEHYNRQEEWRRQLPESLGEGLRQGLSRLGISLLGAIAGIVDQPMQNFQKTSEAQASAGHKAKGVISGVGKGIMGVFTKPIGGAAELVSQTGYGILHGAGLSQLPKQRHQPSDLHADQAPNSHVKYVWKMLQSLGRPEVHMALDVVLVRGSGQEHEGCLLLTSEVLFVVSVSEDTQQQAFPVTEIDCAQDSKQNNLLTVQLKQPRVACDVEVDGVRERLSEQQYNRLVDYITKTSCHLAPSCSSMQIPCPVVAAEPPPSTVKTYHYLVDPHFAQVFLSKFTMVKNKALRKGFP
UniProt Q9C0B0: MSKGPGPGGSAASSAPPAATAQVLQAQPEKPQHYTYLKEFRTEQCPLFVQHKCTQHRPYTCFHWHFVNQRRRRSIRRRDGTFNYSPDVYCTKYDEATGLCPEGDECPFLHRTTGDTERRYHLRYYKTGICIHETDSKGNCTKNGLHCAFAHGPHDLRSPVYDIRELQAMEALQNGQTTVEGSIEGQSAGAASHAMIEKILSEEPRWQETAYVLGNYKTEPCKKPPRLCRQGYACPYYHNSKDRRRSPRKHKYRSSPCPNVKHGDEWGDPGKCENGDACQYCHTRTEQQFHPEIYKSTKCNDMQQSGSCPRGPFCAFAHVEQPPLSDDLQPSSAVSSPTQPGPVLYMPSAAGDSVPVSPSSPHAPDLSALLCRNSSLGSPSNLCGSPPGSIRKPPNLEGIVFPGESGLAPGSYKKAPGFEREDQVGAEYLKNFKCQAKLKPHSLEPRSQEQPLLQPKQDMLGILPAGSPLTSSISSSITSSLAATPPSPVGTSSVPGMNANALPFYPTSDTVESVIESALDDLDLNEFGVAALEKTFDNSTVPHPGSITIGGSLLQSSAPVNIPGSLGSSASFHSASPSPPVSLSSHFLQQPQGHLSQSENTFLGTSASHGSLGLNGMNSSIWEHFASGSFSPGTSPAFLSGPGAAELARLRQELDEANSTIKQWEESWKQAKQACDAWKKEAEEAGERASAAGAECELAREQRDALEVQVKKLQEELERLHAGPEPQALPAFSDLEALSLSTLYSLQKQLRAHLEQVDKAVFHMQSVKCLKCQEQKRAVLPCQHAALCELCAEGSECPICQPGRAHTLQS
UniProt Q14119: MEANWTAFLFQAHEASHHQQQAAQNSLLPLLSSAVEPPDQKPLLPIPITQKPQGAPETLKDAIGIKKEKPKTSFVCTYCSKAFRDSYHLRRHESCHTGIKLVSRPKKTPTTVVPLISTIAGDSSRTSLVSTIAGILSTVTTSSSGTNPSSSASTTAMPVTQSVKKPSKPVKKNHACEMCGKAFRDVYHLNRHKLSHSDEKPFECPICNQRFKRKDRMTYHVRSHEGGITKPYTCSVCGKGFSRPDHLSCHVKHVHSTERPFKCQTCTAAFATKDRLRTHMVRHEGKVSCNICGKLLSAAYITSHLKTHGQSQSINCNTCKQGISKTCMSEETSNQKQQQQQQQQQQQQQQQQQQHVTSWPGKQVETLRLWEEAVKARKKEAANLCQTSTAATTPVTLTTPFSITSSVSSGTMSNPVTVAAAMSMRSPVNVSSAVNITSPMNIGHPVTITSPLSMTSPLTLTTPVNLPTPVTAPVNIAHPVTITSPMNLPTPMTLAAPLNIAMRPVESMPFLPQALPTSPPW

The other results are listed elsewhere or left out. The data scatter; read single values as rough.

Compound in the assay: ClCC(=O)N[C@@H]1CCCc2ccccc12
The assay can be described thus: log2 mean competition ratio of IA-DTB cysteine labelling (DMSO/compound) (log2 ratio); higher = stronger cysteine engagement by compound. To be noted: 200 µM; treatment time: 4 h; cell line lysate: HEK293T. The procedure: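 IA-DTB competitive cysteine chemoproteomics in HEK293T RIPA lysate. Lysates were treated with compound 29 or 30 at 50 or 200 µM for 4 h, then IA-DTB (500 µM, 1 h), trypsin-digested, NeutrAvidin-enriched and analysed by diaPASEF. Competition ratio = intensity DMSO / intensity compound (n=4 treated, n=64 DMSO); binding: mean log2 CR ≥ 1 and p ≤ 0.05 plus QC filters. Target is the cysteine site.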
As to VARS1 C663, the “log2 mean competition ratio” value was -0.13. USP24 C1628 (UniProt Q9UPU5): the “log2 mean competition ratio” value was determined as 0.0288. The figure for USO1 C303 (UniProt O60763) is 0.215; for USP4 C7 (UniProt Q13107) it is 0.0979. The figure for UBXN7 C160 is -0.155. Take USP34 C2364 (UniProt Q70CQ2): the “log2 mean competition ratio” value came out at 0.0556. The same measure for UQCRH C37 (UniProt P07919): 0.197; for USPL1 C534: -0.0185. The figure for VAX2 C76 is 0.0432; for USP34 C856 (UniProt Q70CQ2) it is 0.289. VPS13B C2907 (UniProt Q7Z7G8): the “log2 mean competition ratio” value was -0.195. The figure for UNK C696 (UniProt Q9C0B0) is 0.124; for VPS13D C374 (UniProt Q5THJ4) it is 0.235; for VEZF1 C327 (UniProt Q14119) it is 0.114.

For VKORC1L1 C58, the “log2 mean competition ratio” value amounted to 0.0378. Turning to UCHL5 C191, the “log2 mean competition ratio” value came out at 0.137. Consider UTP15 C385 (UniProt Q8TED0), for which the “log2 mean competition ratio” value is -0.123.

USP54 C1394 (UniProt Q70EL1): the “log2 mean competition ratio” value amounted to 0.115. The figure for UPF2 C315 (UniProt Q9HAU5) is -0.344.
